Assay results from paper PMC3082517 (PLoS Biology, 2011).
Results are given in words; binding and its absence hold for the method and conditions named. For part of these data: In cells and extracts the contact can be indirect. Some results given as binding are weak or reduced against the parent protein; the word gives no strength. For part of these data: Tags and fused reporters may be left off the sequences shown. One block for each substance: values may come before it.

By UniProt entry, the sequences of proteins in these tests, tags left out. Where a name states a change or a piece, a line headed by the entry shows the natural chain unless it says otherwise. Residues count along the entry.
UniProt P07174, residues 30-425: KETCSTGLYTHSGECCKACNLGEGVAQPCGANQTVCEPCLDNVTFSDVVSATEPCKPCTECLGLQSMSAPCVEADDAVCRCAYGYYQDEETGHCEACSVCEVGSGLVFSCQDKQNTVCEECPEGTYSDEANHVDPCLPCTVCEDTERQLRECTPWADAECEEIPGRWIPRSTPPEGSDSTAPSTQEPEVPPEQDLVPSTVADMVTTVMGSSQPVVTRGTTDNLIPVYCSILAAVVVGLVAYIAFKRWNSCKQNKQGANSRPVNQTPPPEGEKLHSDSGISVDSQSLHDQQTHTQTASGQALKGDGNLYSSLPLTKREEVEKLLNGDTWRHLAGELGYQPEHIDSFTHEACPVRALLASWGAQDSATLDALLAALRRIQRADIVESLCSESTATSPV
UniProt Q9Z0W1, residues 32-254: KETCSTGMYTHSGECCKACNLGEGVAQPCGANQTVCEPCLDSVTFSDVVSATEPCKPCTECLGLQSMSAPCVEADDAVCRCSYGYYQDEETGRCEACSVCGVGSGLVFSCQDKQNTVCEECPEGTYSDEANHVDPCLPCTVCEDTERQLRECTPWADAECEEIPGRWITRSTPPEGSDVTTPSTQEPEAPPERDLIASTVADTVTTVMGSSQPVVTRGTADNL
UniProt P01139, residues 122-241: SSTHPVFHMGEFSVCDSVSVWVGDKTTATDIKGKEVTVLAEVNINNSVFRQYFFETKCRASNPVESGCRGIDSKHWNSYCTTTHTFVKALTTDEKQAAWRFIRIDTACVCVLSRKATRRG

Tests used:
[1] = target: rat p75^NTR receptor expressed in HEK293 cells (HEK293^p75NTR) (rat) (UniProt P07174); assay: radioligand binding; homologous [125I]-NGF displacement with unlabeled NGF on membranes isolated from HEK293^TrkA and HEK293^p75NTR transfectants; only the binder purified
[2] = target: Recombinant Mouse NGF R/TNFRSF16/Fc Chimera (mouse) (UniProt Q9Z0W1); assay: pull-down; recombinant receptor/Fc chimeras pre-incubated with NGF in excess, then incubated overnight at 4°C with DHEA-7-CMO on NovaPEG amino resin; loss of the pull-down read by Western blot; both purified
[3] = target: T1, RhoGDP dissociation inhibitor (RhoGDI), myc-tagged (UniProt P52565); assay: co-IP; HEK293 cells co-transfected with p75NTR and flag-TRAF6, myc-RIP2 or myc-RhoGDI, exposed for 30 min to 100 nM DHEA or 100 ng/ml NGF; lysates (50 mM Tris-HCl, 0.15 M NaCl, 1% Triton-X100, pH 7.4) immunoprecipitated with anti-flag or anti-myc, blotted for p75NTR
T1 sequence: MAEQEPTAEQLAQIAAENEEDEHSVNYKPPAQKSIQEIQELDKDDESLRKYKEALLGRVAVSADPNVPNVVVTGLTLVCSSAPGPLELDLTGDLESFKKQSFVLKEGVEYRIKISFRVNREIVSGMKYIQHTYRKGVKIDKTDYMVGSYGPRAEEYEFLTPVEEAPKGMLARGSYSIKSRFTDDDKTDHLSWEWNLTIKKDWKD

- binding [1]: binds
Substance: [125I]-NGF (from UniProt P01139 122-241) (ligand)

- binding [2]: binds
Substance: nerve growth factor (NGF), unlabeled (from UniProt P01139 122-241) (ligand)

- binding [3]: binds
Substance: rat p75^NTR receptor expressed in HEK293 cells (HEK293^p75NTR) (from UniProt P07174 30-425)
